Assay results published in article PMC4928008.
Results are given in words; binding and its absence hold for the method and conditions named. In cells and extracts the contact can be indirect. Some binding calls cover weakened binding; strength is not graded here.

Chains of the proteins cited; added tags and fusions are not shown.
UniProt Q04206: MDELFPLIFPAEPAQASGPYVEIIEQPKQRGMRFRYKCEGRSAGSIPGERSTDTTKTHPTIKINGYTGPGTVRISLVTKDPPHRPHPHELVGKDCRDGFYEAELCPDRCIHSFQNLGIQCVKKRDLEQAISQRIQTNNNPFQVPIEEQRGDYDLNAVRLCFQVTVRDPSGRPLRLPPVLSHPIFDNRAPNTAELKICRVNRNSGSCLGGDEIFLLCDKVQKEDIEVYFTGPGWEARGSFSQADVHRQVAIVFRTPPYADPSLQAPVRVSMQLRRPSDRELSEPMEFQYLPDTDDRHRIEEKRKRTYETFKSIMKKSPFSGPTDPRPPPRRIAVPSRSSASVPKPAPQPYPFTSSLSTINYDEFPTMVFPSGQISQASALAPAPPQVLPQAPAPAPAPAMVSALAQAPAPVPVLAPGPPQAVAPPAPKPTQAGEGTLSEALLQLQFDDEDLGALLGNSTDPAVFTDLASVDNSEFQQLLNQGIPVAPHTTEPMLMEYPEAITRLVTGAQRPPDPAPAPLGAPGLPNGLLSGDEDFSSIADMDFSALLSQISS
UniProt O43474: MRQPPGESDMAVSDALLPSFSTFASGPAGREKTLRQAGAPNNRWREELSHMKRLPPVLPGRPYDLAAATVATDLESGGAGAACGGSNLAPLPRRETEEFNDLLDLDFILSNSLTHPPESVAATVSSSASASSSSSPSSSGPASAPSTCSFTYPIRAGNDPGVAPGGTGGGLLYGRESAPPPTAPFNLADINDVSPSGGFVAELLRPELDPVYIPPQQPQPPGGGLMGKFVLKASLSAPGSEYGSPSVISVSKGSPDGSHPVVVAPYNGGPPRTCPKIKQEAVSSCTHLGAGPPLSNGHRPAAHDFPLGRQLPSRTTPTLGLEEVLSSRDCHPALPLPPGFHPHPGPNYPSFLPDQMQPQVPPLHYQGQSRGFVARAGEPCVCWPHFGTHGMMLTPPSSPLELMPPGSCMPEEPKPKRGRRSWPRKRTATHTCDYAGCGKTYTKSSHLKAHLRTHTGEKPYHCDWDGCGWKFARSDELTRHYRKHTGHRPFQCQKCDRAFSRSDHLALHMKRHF

Assays:
[1] = target: nuclear factor-kappa B p65 (human (endogenous in RA FLSs)) (UniProt Q04206); assay: co-IP; nuclear extracts (50 μg) of RA FLSs incubated with anti-NF-κB-p65, anti-KLF4 or rabbit IgG (1 μg) in IP buffer (50 mM Tris-HCl pH 7.6, 150 mM sodium chloride, 1% Nonidet P-40, 0.5% sodium deoxycholate) at 4°C overnight; Sepharose G beads; immunoblotting
[2] = target: Krüppel-like factor 4 (human (endogenous in RA FLSs)) (UniProt O43474); assay: as above

Row | binding [1] | binding [2] | Substance
1 | binds |  | Krüppel-like factor 4 (from UniProt O43474 1-513)
2 |  | binds | nuclear factor-kappa B p65 (from UniProt Q04206 1-551)
